Source: paper PMC3485120
No constants are given. Whether binding was seen depends on the method and setting. In cells and extracts the contact can be indirect. Binding calls can cover weak binding; strength is not graded here. Where a sequence is shown, tags or fusion partners need not be part of it.

Assays:
[1] = target: T1, Hif2-HA fusion protein (S. pombe) (UniProt O74845); assay: co-IP; anti-HA (HA.11) on Protein G Dynabeads, S. pombe extracts lysed under native conditions in extraction buffer (1% IGEPAL CA630, 150 mM NaCl, 50 mM Tris-HCl pH 8.0, 2 mM EDTA); immunoblot with anti-Myc (9E10)
T1 sequence: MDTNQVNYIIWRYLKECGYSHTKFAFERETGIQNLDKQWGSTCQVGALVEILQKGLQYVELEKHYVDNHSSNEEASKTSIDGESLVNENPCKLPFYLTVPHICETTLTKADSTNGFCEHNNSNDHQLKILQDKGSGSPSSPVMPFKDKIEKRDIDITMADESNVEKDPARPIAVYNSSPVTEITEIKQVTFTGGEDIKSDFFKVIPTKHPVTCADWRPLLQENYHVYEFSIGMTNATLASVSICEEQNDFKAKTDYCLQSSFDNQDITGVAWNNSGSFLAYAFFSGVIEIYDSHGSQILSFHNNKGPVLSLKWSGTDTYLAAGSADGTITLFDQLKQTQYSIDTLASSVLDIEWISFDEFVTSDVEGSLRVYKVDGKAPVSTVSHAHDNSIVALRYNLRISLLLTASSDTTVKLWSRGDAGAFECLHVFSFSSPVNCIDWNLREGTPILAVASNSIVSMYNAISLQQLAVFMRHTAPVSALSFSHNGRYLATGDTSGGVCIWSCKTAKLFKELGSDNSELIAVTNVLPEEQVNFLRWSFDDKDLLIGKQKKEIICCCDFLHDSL

[2] = target: T2, Set3-HA fusion protein (S. pombe) (UniProt Q10362); assay: as above
T2 sequence: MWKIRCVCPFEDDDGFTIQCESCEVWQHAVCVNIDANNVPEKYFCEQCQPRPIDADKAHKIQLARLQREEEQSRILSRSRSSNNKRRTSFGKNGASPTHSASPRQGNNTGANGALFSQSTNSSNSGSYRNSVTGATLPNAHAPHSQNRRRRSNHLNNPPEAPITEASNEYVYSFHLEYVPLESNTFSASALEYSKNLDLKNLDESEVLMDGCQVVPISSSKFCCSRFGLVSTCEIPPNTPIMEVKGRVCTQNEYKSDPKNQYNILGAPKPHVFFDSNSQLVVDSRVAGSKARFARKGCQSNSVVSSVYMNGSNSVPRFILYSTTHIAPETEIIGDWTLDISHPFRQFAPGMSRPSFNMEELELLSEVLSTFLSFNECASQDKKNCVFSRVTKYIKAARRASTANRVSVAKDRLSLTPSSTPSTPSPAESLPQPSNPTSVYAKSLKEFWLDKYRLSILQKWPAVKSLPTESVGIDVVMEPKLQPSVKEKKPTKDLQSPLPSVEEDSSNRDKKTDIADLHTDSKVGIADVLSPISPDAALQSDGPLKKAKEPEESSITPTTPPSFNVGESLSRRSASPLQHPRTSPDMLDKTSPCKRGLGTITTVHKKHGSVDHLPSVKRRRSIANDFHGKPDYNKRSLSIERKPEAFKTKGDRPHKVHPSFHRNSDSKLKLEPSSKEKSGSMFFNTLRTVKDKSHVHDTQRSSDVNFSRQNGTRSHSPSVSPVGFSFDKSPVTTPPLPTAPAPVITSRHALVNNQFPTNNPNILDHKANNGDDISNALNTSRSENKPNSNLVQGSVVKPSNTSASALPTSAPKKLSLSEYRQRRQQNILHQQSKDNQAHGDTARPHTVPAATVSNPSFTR

Hos2-Myc fusion protein (S. pombe)
binding [1]: binds | binding [2]: binds
